Results are given in words; binding and its absence hold for the method and conditions named. In cells and extracts the contact can be indirect. Some results given as binding are weak or reduced against the parent protein; the word gives no strength.
What was measured:
[1] = biological target: TAP-tagged Spt16 (Spt16-TAP), wild type (budding yeast (S. cerevisiae)) (UniProt P32558); assay: co-IP; tandem affinity purification of TAP-tagged Spt16 from yeast lysate (IgG Sepharose, TEV elution, calmodulin resin; 25 mM Tris pH 8.0, 100 mM NaCl, DNase I); co-purified proteins by immunoblotting
[2] = biological target: TAP-tagged Spt16-m (SPT16-K692R693AA) (budding yeast (S. cerevisiae)) (UniProt P32558); assay: as above

Chains of the proteins cited; added tags and fusions are not shown. Lines headed by an entry give the natural chain unless they say otherwise; changes in a name come on top. A line that says so, or that is headed by a name, gives the form on record, which may keep a tag or linker.
UniProt P32558: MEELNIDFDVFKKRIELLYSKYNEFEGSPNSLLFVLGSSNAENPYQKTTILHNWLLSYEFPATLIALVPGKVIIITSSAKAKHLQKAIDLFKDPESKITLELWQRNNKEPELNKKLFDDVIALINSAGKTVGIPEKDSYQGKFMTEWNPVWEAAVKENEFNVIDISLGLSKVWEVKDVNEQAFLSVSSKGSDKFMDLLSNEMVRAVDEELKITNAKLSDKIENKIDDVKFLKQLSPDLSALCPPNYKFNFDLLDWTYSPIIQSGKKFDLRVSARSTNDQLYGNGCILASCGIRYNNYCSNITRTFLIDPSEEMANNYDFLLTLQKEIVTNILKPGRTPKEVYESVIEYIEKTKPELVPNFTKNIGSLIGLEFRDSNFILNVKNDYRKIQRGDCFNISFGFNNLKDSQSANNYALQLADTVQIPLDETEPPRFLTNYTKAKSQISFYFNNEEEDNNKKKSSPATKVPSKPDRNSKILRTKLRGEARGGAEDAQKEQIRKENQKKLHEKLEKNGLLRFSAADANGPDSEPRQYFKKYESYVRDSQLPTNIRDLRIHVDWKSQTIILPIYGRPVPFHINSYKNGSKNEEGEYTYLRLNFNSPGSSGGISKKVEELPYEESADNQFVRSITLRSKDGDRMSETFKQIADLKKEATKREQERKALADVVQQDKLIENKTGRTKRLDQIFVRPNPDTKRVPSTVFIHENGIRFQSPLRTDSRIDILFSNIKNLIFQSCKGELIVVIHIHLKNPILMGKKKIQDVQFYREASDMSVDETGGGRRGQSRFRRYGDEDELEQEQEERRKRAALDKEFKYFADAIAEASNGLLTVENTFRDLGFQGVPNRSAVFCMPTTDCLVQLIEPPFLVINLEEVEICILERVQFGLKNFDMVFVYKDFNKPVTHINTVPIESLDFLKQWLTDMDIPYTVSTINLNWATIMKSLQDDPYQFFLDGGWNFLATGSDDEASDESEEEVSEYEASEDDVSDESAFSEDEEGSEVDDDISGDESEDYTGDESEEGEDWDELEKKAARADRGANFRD
TAP-tagged Spt16-m (SPT16-K692R693AA) (budding yeast (S. cerevisiae)) (P32558, form named): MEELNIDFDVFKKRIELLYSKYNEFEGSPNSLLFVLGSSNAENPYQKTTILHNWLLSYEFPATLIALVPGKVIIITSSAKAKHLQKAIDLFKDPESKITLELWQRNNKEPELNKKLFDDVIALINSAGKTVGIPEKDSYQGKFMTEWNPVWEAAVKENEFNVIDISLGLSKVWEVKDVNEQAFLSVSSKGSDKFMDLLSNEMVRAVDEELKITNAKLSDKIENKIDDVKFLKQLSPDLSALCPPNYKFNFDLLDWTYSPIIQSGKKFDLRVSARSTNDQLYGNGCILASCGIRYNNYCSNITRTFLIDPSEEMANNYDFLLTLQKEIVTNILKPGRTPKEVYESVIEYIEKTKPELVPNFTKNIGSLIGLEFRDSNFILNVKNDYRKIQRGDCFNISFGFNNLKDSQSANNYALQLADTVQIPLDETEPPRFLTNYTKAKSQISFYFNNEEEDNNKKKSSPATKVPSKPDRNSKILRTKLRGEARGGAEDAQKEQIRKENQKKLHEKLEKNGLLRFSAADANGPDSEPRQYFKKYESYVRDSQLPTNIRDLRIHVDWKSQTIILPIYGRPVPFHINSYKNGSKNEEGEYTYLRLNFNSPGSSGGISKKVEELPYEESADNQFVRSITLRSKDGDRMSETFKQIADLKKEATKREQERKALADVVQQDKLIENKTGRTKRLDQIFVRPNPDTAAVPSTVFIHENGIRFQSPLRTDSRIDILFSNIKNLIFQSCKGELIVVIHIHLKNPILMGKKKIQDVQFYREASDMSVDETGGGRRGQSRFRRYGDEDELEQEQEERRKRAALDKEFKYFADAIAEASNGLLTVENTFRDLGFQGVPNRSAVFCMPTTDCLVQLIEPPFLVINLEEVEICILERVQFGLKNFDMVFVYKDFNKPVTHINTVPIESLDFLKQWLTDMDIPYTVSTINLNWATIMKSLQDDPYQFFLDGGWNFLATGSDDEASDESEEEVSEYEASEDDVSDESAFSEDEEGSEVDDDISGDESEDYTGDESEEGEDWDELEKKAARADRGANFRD

binding [1]: binds | binding [2]: binds
B1: Mcm4 (as detected in Figure 3F) (protein, UniProt P30665 1-933)
chain: MSQQSSSPTKEDNNSSSPVVPNPDSVPPQLSSPALFYSSSSSQGDIYGRNNSQNLSQGEGNIRAAIGSSPLNFPSSSQRQNSDVFQSQGRQGRIRSSASASGRSRYHSDLRSDRALPTSSSSLGRNGQNRVHMRRNDIHTSDLSSPRRIVDFDTRSGVNTLDTSSSSAPPSEASEPLRIIWGTNVSIQECTTNFRNFLMSFKYKFRKILDEREEFINNTTDEELYYIKQLNEMRELGTSNLNLDARNLLAYKQTEDLYHQLLNYPQEVISIMDQTIKDCMVSLIVDNNLDYDLDEIETKFYKVRPYNVGSCKGMRELNPNDIDKLINLKGLVLRSTPVIPDMKVAFFKCNVCDHTMAVEIDRGVIQEPARCERIDCNEPNSMSLIHNRCSFADKQVIKLQETPDFVPDGQTPHSISLCVYDELVDSCRAGDRIEVTGTFRSIPIRANSRQRVLKSLYKTYVDVVHVKKVSDKRLDVDTSTIEQELMQNKVDHNEVEEVRQITDQDLAKIREVAAREDLYSLLARSIAPSIYELEDVKKGILLQLFGGTNKTFTKGGRYRGDINILLCGDPSTSKSQILQYVHKITPRGVYTSGKGSSAVGLTAYITRDVDTKQLVLESGALVLSDGGVCCIDEFDKMSDSTRSVLHEVMEQQTISIAKAGIITTLNARSSILASANPIGSRYNPNLPVTENIDLPPPLLSRFDLVYLVLDKVDEKNDRELAKHLTNLYLEDKPEHISQDDVLPVEFLTMYISYAKEHIHPIITEAAKTELVRAYVGMRKMGDDSRSDEKRITATTRQLESMIRLAEAHAKMKLKNVVELEDVQEAVRLIRSAIKDYATDPKTGKIDMNLVQTGKSVIQRKLQEDLSREIMNVLKDQASDSMSFNELIKQINEHSQDRVESSDIQEALSRLQQEDKVIVLGEGVRRSVRLNNRV
